Assay results from PubChem BioAssay AID1671190 (National Center for Advancing Translational Sciences (NCATS), 2021).
Several values for one entry are separate records, joined by “and”; a condition that tells them apart may be missing. Equal entries are not always repeated. Screen size: about 580,000 compounds; about 6,100 (1.1%) were called active. This list was built around the results that the source calls inconclusive (neither active nor inactive); the mix of calls is not that of the screen. The call rests on the fitted dose curve; in most records, active means well fitted inhibition curve with a large enough effect; inconclusive means small, poorly fitted or top-dose-only effect, or another doubt; inactive means no such curve, though single readings can be large or run the other way. Potencies beside an inconclusive call are fits to weak or partial responses and may not hold up.

By UniProt entry, the sequences of proteins in these tests, tags left out. Where a name states a change or a piece, a line headed by the entry shows the natural chain unless it says otherwise.
UniProt P18054: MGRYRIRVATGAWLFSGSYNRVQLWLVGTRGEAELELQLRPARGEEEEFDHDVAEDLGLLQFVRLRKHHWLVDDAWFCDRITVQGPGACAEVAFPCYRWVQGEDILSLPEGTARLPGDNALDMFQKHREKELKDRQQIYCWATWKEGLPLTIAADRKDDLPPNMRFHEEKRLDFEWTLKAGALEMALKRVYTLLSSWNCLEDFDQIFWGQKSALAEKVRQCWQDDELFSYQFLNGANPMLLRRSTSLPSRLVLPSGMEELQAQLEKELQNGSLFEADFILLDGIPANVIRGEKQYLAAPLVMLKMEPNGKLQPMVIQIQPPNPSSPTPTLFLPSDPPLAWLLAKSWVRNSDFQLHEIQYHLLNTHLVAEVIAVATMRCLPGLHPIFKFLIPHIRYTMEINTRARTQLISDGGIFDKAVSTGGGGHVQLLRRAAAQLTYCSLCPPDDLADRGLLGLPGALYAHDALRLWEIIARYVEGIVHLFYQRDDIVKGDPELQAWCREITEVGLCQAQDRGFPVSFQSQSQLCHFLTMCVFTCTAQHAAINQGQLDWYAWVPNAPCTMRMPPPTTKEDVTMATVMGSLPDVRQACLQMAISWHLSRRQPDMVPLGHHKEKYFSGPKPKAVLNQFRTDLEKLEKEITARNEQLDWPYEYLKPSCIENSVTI

Target: Polyunsaturated fatty acid lipoxygenase ALOX12 (Homo sapiens) (UniProt P18054)
Assay: Primary qHTS assay for inhibitors of human arachidonate 12S-lipoxygenase (ALOX12): Round 2
Conditions: purified 12hLO, xylenol orange hydroperoxide absorbance; activity change, negative = inhibition: at 108 µM (top of the series) unless noted
Outline: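 Purified human 12hLO (150 nM final) in 25 mM Hepes, 0.01% Triton X-100, pH 7.0 was preincubated 15 min at room temperature with compound. Then 40 uM arachidonic acid was added, 30 min. Hydroperoxide was read by Fe-XO absorbance ratio 573/405 nm.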
On the % scale 0 is the no-effect control and ±100 the full control effect; potency means the concentration at half of the fitted maximal effect.

SMILES	Potency	activity change, negative = inhibition
CCCCCCCCN1C(=O)[C@H](CC(=O)NCc2cccc3ccccc23)C[C@@]2(C(=O)OCC)CCC=C12	inconclusive: 112 µM [inhibitor, single point]	
O=C(c1ccco1)N1CCN(C(c2ccccc2)c2nnnn2C2CCCC2)CC1 (stereo not given)	inconclusive: 44.7 µM [inhibitor, partial curve]	
O=C(Cn1nc2ccccc2n1)N/N=C/c1cc(Cl)cc([N+](=O)[O-])c1O	inconclusive: 44.7 µM [inhibitor, partial curve, poor fit]	
CCOC(=O)C1(Cc2cccc(Cl)c2)CCCN(C(=O)c2cc(C)on2)C1 (stereo not given)		inactive: -1.24%
Cc1cc(C(=O)NNS(=O)(=O)c2ccc(C(C)(C)C)cc2)nn1C(C)(C)C	inconclusive: 100 µM [inhibitor, single point]	
COc1ccc(OC)c(NC(=O)CN2CC3CC(C2)[C@H]2CCCC(=O)N2C3)c1 (stereo not given in full)		inactive: -8.16%
CC(=O)Nc1ccc(C)cc1-c1nc2ccccc2n(CC(=O)c2ccc(C)c(C)c2)c1=O	inconclusive: 89.1 µM [inhibitor, partial curve, poor fit]	
CCC(C)(C)n1nnnc1C(c1ccc2ncccc2c1)N1CCN(c2nc3ccccc3s2)CC1 (stereo not given)	inconclusive: 44.7 µM [inhibitor, partial curve, poor fit]	
COc1cccc(Nc2nc(-c3c(C)noc3C)cc3cc(CN(C)C)oc23)c1	inconclusive: 31.6 µM [inhibitor, partial curve, poor fit]	
COCCN1C(=O)c2ccccc2C(C(=O)Nc2nccs2)C12CCCCC2 (stereo not given)		inactive: 49.7%
COc1ccc(S(=O)(=O)n2nc(C)c(S(=O)(=O)N3CCCCCC3)c2C)cc1C	inconclusive: 17.8 µM [inhibitor, partial curve, poor fit]	
O=C(O)CSc1nc(-c2ccc(Cl)cc2)nc2c1oc1ccccc12	inconclusive: 100 µM [inhibitor, single point]	
CN(C)S(=O)(=O)c1ccc(C(=O)Nc2nc3ccccc3[nH]2)cc1		inactive: 8.32%
COCCn1c(CO)nnc1C1CC(NC(=O)Cc2nc(C)sc2C)C1 (stereo not given)		inactive: 42.8%
N#C/C(=C\c1ccc(-c2ccc(S(=O)(=O)N3CCOCC3)cc2)o1)C(=O)NC1CC1		inactive: -38.5%
CC1(C)CC(=O)c2sc(NC(=O)CN3CCCCC3)nc2C1	active: 31.6 µM	
COc1ccc(COCC(O)CN2CCN(S(=O)(=O)c3ccc(C(C)C)cc3)CC2)cc1 (stereo not given)	inconclusive: 0.891 µM [inhibitor, full curve, poor fit]	
Cc1ccc(-c2ccc(/C=C3\SC(N4CCOCC4)=NC3=O)o2)cc1	active: 35.5 µM	
CCc1cc(C(=O)OC)c(NC(=O)CCC(=O)O)s1		inactive: 0%
CCCc1[nH]nc2c1C(c1ccccc1)C(C#N)=C(N)O2 (stereo not given)	inconclusive: 50.1 µM [inhibitor, partial curve, poor fit]	
CNC(=S)N=Nc1c(O)[nH]c2ccccc12		inactive: -17.5%
Cc1cc(C)n(-c2nnc(SCC(=O)Nc3ccccc3C)n2N)n1		inactive: 40.9%

SMILES	Potency	activity change, negative = inhibition
CCOC(=O)c1c(N)n(-c2ccc(CC)cc2)c2nc3ccccc3nc12	inconclusive: 31.6 µM [inhibitor, partial curve, poor fit]	
CCOc1ccccc1OCc1nn2c(C(C)C)nnc2s1	inconclusive: 50.1 µM [inhibitor, partial curve, poor fit]	
CC1(C)C(=O)C=CC(=O)C(C)(C)C(=O)C=CC(=O)C(C)(C)C2=CC=C(O2)C(C)(C)C(=O)C=CC1=O		inactive: -8.03%
C#CCNC(=O)C1=C[C@@H](c2ccc(C(F)(F)F)cc2)C[C@@H](OCCCCO)O1	inconclusive: 44.7 µM [inhibitor, partial curve, poor fit]	
Cc1nc(-c2ccc(F)cc2)sc1CCNC(=O)c1cccs1		inactive: -16.3%
C=CCN(C(=O)Cn1c(C(=O)OC)cc2oc(C)cc21)c1ccccc1	inconclusive: 56.2 µM [inhibitor, partial curve, poor fit]	
CC(C)(C)c1ccccc1NC(=O)COC(=O)c1ccc2ccccc2n1	inconclusive: 39.8 µM [inhibitor, partial curve]	
CC(=O)N1CCOc2cc(S(=O)(=O)NCc3ccccc3Cl)c(Cl)cc21		inactive: 2.04%
COc1ccc2c(c1)cc(C(=O)Nc1ccc(C)cc1C)n2C		inactive: 0.782%
CCOC(=O)Cn1cc(CN2C(C(=O)OC)CN(C3CCCC3)CCS2(=O)=O)nn1 (stereo not given)	inconclusive: 12.6 µM [inhibitor, full curve, poor fit]	
CCc1cccc(NC(=O)Cn2c(-c3ccc(F)cc3)nc(C)c(CCO)c2=O)c1	inconclusive: 31.6 µM [inhibitor, partial curve, poor fit]	
COc1cc(O)cc(/C=C/c2ccccc2)c1	inconclusive: 79.4 µM [inhibitor, single point]	
C=CCn1c(SCC(=O)O)nc2c1c(=O)[nH]c(=O)n2C	inconclusive: 79.4 µM [inhibitor, single point]	
O=C(c1csc(Nc2ccc(Cl)c(Cl)c2)n1)N1CCc2ccccc2C1	inconclusive: 12.6 µM [inhibitor, full curve, poor fit]	
CC(C)(C)c1ccc(C(=O)NCCSc2c[nH]c3ccccc23)cc1	inconclusive: 44.7 µM [inhibitor, partial curve, poor fit]	
CN1CCN(S(=O)(=O)c2cccc(C(=O)N3CCN(c4ccccc4F)CC3)c2)CC1	inconclusive: 89.1 µM [inhibitor, single point]	
CCOc1ccccc1N1CCN(C2=C(NS(=O)(=O)c3cccs3)C(=O)c3ccccc3C2=O)CC1		inactive: -0.505%
O=C(c1ccc2c(c1)N(Cc1cccc(Cl)c1)C(=O)c1ccccc1S2=O)N1CCC(Cc2ccccc2)CC1 (stereo not given)		inactive: -15.5%
Nc1ccc(Oc2ncccn2)cc1		inactive: 57.9%
O=c1c(-c2ccc(Cl)cc2)coc2cc(OCCN3CCN(CCO)CC3)ccc12	inconclusive: 50.1 µM [inhibitor, partial curve, poor fit]	
Cc1ccc(C(=O)c2c3ccc([N+](=O)[O-])cc3[n+]([O-])n2CCC(N)=O)cc1	inconclusive: 39.8 µM [inhibitor, partial curve]	
Oc1ccc(-c2nc(C3CC3)nc3c2CN(Cc2ccccc2C(F)(F)F)CC3)cc1	inconclusive: 20 µM [inhibitor, partial curve, poor fit] and inconclusive: 50.1 µM [inhibitor, partial curve]	

SMILES	Potency	activity change, negative = inhibition
CCn1nnc(NC(=O)c2ccco2)n1	inconclusive: 56.2 µM [inhibitor, partial curve, poor fit]	
CN(C(=O)c1ccnc(-c2nnc3ccc(N4CCOCC4)nn23)c1)c1ccccc1	active: 31.6 µM	
CCN(CC)c1ncnc2c1ncn2[C@H]1CN(Cc2cccnc2)C[C@@H](CO)O1		inactive: 6.24%
COc1cc(C2C(C#N)=C(N)OC3=C2C(=O)CCC3)c([N+](=O)[O-])cc1OC (stereo not given)	inconclusive: 1.58 µM [inhibitor, partial curve, poor fit]	
CC(NC(=O)Cc1ccc(S(=O)(=O)N2CCOCC2)s1)c1ccc(Cl)c(Cl)c1 (stereo not given)	inconclusive: 158 µM [inhibitor, single point]	
CN(C)S(=O)(=O)c1ccc(=O)n(Cc2ncc(-c3ccc(F)cc3)o2)c1		inactive: -9.28%
c1csc(CNCCCn2ccnc2)c1	inconclusive: 44.7 µM [inhibitor, partial curve, poor fit]	
CCOC(=O)c1c(S(=O)(=O)N2CCC(C(=O)Nc3ccc(C)c(Cl)c3)CC2)c(C)n(C)c1C	inconclusive: 50.1 µM [inhibitor, partial curve, poor fit]	
Cn1ncc2c(C(=O)NC3CC3)cc(-c3cccc(C(F)(F)F)c3)nc21	inconclusive: 79.4 µM [inhibitor, partial curve, poor fit]	
O=C(Nc1ccc2c(c1)OCCCO2)c1ccccc1SCc1cccs1	active: 15.8 µM	
COc1ccc(S(=O)(=O)N2[C@@H]3CC[C@H]2CC(NC(=O)c2ccncc2)C3)cc1 (stereo not given in full)	inconclusive: 12.6 µM [inhibitor, full curve]	
O=S(=O)(c1ccc(-c2cnc(C3CC3)o2)cc1)N1CCN(c2ccc(F)cc2)CC1		inactive: -12.6%
Cn1c(=O)c2c(nc(Sc3ccccc3)n2Cc2ccc(Cl)cc2)n(C)c1=O		inactive: 12.2%
CC(=O)N1CCC2(CC1)C(C#N)=C(N)OC1=C2C(=O)CC(C)(C)C1	inconclusive: 39.8 µM [inhibitor, partial curve, poor fit]	
CCn1nc(C)c2c(-c3ccccc3)cc(=O)n(C(C)C(=O)NCCc3ccc(Cl)cc3)c21 (stereo not given)	inconclusive: 50.1 µM [inhibitor, partial curve, poor fit]	
O=C(O)Cn1cc(C(C(=O)O)N2CCN(Cc3cccc(Cl)c3)CC2)c2ccc(F)cc21 (stereo not given)	inconclusive: 35.5 µM [inhibitor, partial curve, poor fit]	
CC(c1ccccc1)n1c(-c2ccccc2F)n[nH]c1=S (stereo not given)	inconclusive: 70.8 µM [inhibitor, partial curve, poor fit]	
CN(C)c1ccc(C=c2c3ccccc3n3c2cc(-c2ccc(Cl)cc2)[n+]3C)cc1	active: 44.7 µM	
COc1cc(C2C(C(=O)c3ccc(C)o3)=C(O)C(=O)N2c2cc(C)on2)cc(OC)c1OC (stereo not given)	inconclusive: 44.7 µM [inhibitor, partial curve, poor fit]	
CCCC(=O)OCC(=O)Nc1ccc([N+](=O)[O-])cc1C#N		inactive: 0.361%
c1ccc(-c2cccc(N3CCCC4(CCNCC4)C3)c2)cc1	inconclusive: 31.6 µM [inhibitor, single point]	

Looked up by structure from above (2):
SMILES	Potency	activity change, negative = inhibition
CC1(C)CC(=O)c2sc(NC(=O)CN3CCCCC3)nc2C1	active: 31.6 µM	
CCCC(=O)OCC(=O)Nc1ccc([N+](=O)[O-])cc1C#N		inactive: 0.361%

Three entries from above, comma-delimited:
SMILES,Potency,"activity change, negative = inhibition"
c1csc(CNCCCn2ccnc2)c1,"inconclusive: 44.7 µM [inhibitor, partial curve, poor fit]",
CCOC(=O)c1c(S(=O)(=O)N2CCC(C(=O)Nc3ccc(C)c(Cl)c3)CC2)c(C)n(C)c1C,"inconclusive: 50.1 µM [inhibitor, partial curve, poor fit]",
Cn1ncc2c(C(=O)NC3CC3)cc(-c3cccc(C(F)(F)F)c3)nc21,"inconclusive: 79.4 µM [inhibitor, partial curve, poor fit]",
